Data source: PubChem BioAssay AID652259 (Drosophila RNAi Screening Center, 2013)

Test: 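Genome-wide hunt for genes that control Wingless pathway activity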 (primary screen)
Cell system: Drosophila clone 8 imaginal disc epithelial cells
Knock-down reagent: long dsRNA against Drosophila genes
Conditions: pathway stimulated by co-transfected Wingless expression plasmid
Measurement: 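Firefly luciferase from a tcf-site Wingless reporter, measured alongside co-transfected Renilla luciferase that tracks transfection; pathway stimulated by a Wingless plasmid; the firefly-to-Renilla ratio is not deposited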
Reading the numbers: firefly reporter light: higher = more Wg reporter light, before normalisation; Renilla control light: higher = more transfected or surviving cells
Active means: 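Strong candidates differ from their plate mean by at least two out of four per-plate statistical tests; weak candidates meet just one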
Calls: active = candidate regulator (raises or lowers reporter); inactive = not a candidate
In all, the deposit lists about 22,000 reagents; shown is an unselected part of those with a known target gene and a result. In the full data, 233 (1.1%) got an active call. 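Light values are raw, unnormalised plate reads; the ratio scores behind the reporter calls were not deposited.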 Entries without a mark were called inactive. Reagents against one gene are numbered here. Not given: the amount of reagent, the time to read-out, the dose of the treatment.

The opening 2 records as a preview:
gene,dsRNA no.,"firefly reporter light, replicate 1","firefly reporter light, replicate 2","Renilla control light, replicate 1","Renilla control light, replicate 2"
CG15362,1,4119,6359,1520,2992
CG5039,1,23146,,20298,

Results, from the start:
gene,dsRNA no.,"firefly reporter light, replicate 1","firefly reporter light, replicate 2","Renilla control light, replicate 1","Renilla control light, replicate 2"
CG15362,1,4119,6359,1520,2992
CG5039,1,23146,,20298,
Lipt2,1,10164,,4631,
Lipt2,2,4.48e5,4.51e5,1.83e5,1.51e5
Vha36-2,1,6906,,3005,
Cpr67Fb,1,4711,,1924,
amx,1,16490,,4202,
CG31041,1,4378,,1595,
Ir7g,1,17552,,7709,
ND-23,1,2183,5825,1159,956
Myo10A,1,12406,,4224,
Myo10A,2,21724,,10040,
Myo10A,3,16320,,7312,
cni,1,5024,8019,1859,4713
TTLL4B,1,10976,,4013,
Nepl10,1,10263,,3995,
Pka-R2,1,2715,10577,376,3536
CG15177,1,7154,,2704,
Mrm2,1,13569,,3667,
Ir76a,1,4299,,1962,
CG1909,1,2944,9083,672,2752
CG33306,1,5396,,2093,
VhaM9.7-c,1,5600,,1641,
CG2681,1,2843,11147,1096,3399
CG11815,1,3835,,1250,
ProRS-m,1,5281,,1383,
Drsl4,1,2264,,1177,
sphe,1,3862,9056,1463,2209
Hmt4-20,1,1344,4004,453,902
